{"source": "PubChem BioAssay AID1259308 – NCATS, 2017", "screen": "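Knock-downs that increase output of a recombinant reporter protein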 (primary screen)", "cells": "human HEK293 embryonic kidney cells stably expressing firefly luciferase (HEK-CMV-Luc2-Hygro)", "knock-down reagent": "single siRNA against human genes, 0.8 pmol siRNA per well", "duration": "72 h", "measured": "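Reporter luminescence and viable-cell signal on separate replicate plates, given as percent of non-targeting control and median/MAD z-scores, plus per-cell luciferase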", "reading the numbers": "total luciferase, z-score and total luciferase, % of control: higher = more reporter protein produced", "call rule": "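Active when the median/MAD z-score for overall luciferase is greater than 3; a gene was taken forward for validation with new siRNAs if at least two of its three siRNAs passed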", "meaning of the calls": "active = raised luciferase; inactive = no rise", "note": "In all, the deposit lists about 59,000 reagents; this is an unselected part. Over the whole deposit, about 1,510 (2.6%) got an active call. 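Calls use total luciferase alone and ignore viability, so some active siRNAs may act by altering cell number.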 Reagents against one gene are numbered here. Not all columns of the deposit are shown."}
{"target gene": "TRMT10A (GeneID 93587)", "reagent": 1, "total luciferase, z-score": 0.24, "total luciferase, % of control": 86.7, "Outcome": "inactive"}
{"target gene": "TRMT10A (GeneID 93587)", "reagent": 2, "total luciferase, z-score": -0.891, "total luciferase, % of control": 64.2, "Outcome": "inactive"}
{"target gene": "TRMT10A (GeneID 93587)", "reagent": 3, "total luciferase, z-score": -0.456, "total luciferase, % of control": 72.8, "Outcome": "inactive"}
{"target gene": "GAS6 (GeneID 2621)", "reagent": 1, "total luciferase, z-score": -0.614, "total luciferase, % of control": 69.7, "Outcome": "inactive"}
{"target gene": "GAS6 (GeneID 2621)", "reagent": 2, "total luciferase, z-score": 1.89, "total luciferase, % of control": 119, "Outcome": "inactive"}
{"target gene": "GAS6 (GeneID 2621)", "reagent": 3, "total luciferase, z-score": 0.673, "total luciferase, % of control": 95.3, "Outcome": "inactive"}
{"target gene": "HELZ2 (GeneID 85441)", "reagent": 1, "total luciferase, z-score": -0.25, "total luciferase, % of control": 76.9, "Outcome": "inactive"}
{"target gene": "HELZ2 (GeneID 85441)", "reagent": 2, "total luciferase, z-score": -1.4, "total luciferase, % of control": 54, "Outcome": "inactive"}
{"target gene": "HELZ2 (GeneID 85441)", "reagent": 3, "total luciferase, z-score": -0.58, "total luciferase, % of control": 70.4, "Outcome": "inactive"}
{"target gene": "TMCO1 (GeneID 54499)", "reagent": 1, "total luciferase, z-score": 0.507, "total luciferase, % of control": 92, "Outcome": "inactive"}
{"target gene": "TMCO1 (GeneID 54499)", "reagent": 2, "total luciferase, z-score": 0.156, "total luciferase, % of control": 85, "Outcome": "inactive"}
{"target gene": "TMCO1 (GeneID 54499)", "reagent": 3, "total luciferase, z-score": -2.34, "total luciferase, % of control": 35.4, "Outcome": "inactive"}

An excerpt from above, showing only “total luciferase, % of control”.
GAS6 (GeneID 2621) #2: 119
GAS6 (GeneID 2621) #3: 95.3
